In the supplement of paper PMC6411743:
± gives the standard deviation of the averaged measurements. This is a selection; strong and weak results do not stand in their true shares.

Sequences of proteins named here, by UniProt entry; tags and fusion partners are left off. A change or cut given only in a name is not applied to a line headed by its entry.
UniProt Q92841: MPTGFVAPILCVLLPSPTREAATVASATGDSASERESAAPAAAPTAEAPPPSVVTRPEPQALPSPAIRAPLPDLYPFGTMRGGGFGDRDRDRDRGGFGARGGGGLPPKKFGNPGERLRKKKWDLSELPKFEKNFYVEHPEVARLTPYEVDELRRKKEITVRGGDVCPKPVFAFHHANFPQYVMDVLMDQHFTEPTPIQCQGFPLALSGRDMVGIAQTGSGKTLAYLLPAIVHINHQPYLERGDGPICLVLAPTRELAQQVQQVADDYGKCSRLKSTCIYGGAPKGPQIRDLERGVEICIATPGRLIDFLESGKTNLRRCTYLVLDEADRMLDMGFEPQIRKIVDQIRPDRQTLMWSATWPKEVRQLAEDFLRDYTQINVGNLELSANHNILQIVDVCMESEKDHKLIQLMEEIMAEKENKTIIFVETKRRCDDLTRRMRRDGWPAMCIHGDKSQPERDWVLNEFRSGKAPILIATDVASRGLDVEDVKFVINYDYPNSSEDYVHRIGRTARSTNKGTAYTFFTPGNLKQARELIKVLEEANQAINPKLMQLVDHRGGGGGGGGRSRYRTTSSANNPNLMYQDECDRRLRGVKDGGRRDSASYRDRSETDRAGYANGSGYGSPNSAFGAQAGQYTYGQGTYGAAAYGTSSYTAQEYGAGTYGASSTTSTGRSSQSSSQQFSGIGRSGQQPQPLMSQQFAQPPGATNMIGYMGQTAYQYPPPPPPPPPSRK
UniProt Q8TED0: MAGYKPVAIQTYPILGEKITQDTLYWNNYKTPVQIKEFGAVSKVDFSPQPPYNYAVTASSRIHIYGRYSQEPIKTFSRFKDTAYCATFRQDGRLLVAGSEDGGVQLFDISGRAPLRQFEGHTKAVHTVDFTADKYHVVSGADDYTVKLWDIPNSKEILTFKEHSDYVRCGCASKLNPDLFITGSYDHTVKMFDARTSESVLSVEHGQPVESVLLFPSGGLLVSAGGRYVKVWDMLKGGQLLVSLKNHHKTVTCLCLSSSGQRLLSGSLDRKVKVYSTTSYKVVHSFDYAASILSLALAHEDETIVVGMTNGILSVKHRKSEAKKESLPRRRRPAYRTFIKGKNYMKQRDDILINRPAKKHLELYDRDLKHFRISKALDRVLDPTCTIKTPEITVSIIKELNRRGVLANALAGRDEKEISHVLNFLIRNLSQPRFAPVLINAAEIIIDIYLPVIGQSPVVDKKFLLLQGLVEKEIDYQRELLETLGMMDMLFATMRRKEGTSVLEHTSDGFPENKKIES
UniProt P30101, whole entry: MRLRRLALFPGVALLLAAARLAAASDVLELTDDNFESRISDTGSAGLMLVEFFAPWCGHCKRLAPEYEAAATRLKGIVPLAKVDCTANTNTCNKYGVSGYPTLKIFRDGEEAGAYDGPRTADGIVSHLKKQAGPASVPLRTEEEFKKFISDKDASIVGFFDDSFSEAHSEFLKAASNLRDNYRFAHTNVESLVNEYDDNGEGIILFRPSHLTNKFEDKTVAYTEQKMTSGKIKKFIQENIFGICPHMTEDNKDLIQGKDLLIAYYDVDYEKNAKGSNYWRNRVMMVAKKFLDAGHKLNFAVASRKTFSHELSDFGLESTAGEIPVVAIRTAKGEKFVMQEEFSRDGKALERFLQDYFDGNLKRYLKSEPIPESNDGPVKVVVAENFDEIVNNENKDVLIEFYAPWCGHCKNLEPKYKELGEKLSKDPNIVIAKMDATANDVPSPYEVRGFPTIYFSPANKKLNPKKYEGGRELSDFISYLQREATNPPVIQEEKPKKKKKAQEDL
UniProt Q9H9Q4: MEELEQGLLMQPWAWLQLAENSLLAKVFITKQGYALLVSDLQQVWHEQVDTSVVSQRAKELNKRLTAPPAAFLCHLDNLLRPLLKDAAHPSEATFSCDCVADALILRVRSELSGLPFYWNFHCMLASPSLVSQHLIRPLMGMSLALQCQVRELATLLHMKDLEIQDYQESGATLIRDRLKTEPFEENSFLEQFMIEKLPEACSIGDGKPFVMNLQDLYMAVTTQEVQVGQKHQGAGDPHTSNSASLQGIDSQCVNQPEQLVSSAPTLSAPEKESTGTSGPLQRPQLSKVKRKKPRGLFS
UniProt O75354: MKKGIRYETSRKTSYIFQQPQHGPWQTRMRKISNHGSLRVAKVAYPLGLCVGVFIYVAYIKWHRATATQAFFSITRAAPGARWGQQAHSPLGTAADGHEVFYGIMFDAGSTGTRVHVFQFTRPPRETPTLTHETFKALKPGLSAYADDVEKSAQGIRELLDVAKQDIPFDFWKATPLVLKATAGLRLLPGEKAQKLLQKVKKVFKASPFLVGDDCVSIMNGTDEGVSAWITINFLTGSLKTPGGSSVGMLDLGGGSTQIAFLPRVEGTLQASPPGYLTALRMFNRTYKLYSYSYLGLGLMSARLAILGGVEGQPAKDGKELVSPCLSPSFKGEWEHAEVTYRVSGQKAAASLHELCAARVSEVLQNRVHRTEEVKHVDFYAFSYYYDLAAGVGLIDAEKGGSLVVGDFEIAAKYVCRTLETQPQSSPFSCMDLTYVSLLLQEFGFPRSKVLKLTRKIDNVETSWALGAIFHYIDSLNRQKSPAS
UniProt Q13227: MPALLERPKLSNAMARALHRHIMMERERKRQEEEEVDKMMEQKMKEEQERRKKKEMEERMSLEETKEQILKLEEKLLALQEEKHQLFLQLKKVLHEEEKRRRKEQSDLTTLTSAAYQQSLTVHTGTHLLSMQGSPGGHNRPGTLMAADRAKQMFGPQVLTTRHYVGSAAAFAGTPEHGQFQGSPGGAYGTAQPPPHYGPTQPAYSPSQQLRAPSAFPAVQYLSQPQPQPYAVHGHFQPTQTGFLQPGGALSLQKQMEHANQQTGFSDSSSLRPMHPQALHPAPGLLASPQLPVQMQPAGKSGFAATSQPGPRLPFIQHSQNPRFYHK
UniProt P15735: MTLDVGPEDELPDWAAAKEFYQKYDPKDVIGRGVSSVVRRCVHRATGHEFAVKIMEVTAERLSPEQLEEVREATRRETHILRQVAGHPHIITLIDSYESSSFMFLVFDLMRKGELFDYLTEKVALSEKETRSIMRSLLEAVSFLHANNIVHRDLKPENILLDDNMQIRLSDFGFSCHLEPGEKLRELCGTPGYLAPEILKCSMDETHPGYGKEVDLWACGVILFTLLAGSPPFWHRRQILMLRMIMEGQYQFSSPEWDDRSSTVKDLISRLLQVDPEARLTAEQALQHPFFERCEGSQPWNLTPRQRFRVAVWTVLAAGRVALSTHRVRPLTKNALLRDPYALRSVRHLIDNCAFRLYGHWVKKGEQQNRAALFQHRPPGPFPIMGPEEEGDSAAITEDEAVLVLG
UniProt Q99933: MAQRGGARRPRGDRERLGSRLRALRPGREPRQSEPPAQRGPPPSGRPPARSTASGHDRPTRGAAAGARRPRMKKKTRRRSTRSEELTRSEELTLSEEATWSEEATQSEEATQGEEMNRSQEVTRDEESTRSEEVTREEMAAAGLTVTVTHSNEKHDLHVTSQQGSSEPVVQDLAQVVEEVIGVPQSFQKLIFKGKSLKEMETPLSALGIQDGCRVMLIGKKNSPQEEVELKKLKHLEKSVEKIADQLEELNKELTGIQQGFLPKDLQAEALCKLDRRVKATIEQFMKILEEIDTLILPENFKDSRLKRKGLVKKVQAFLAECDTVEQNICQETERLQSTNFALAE
UniProt Q96Q05, whole entry: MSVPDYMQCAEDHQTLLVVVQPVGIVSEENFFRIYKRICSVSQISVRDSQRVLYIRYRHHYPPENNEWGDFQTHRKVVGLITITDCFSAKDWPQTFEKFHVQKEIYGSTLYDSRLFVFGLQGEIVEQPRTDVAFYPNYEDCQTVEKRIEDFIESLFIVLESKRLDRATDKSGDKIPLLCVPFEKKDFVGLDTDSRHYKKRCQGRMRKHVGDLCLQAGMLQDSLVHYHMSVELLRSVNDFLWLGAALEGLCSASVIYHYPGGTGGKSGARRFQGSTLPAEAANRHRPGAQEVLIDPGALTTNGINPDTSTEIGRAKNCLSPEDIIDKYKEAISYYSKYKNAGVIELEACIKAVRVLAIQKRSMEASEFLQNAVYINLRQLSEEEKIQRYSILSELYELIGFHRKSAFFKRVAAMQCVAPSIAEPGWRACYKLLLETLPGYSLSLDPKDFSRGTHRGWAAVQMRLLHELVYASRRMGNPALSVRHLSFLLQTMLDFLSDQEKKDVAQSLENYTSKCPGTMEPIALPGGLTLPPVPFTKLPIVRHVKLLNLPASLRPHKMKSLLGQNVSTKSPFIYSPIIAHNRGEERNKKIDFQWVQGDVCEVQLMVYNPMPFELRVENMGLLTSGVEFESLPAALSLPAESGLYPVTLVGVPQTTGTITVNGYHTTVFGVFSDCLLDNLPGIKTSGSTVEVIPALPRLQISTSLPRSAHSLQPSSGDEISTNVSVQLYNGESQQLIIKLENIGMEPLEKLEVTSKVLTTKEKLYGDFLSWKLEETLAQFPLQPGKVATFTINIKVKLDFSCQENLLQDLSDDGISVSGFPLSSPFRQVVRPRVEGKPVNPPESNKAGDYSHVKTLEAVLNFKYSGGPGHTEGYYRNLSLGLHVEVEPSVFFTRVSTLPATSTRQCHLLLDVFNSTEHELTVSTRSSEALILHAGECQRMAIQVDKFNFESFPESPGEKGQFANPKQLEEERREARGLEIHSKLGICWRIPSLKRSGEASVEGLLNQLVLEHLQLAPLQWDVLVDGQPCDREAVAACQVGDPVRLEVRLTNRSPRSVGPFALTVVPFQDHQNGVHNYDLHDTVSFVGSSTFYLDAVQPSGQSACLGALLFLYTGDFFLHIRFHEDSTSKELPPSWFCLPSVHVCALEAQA
UniProt P07942: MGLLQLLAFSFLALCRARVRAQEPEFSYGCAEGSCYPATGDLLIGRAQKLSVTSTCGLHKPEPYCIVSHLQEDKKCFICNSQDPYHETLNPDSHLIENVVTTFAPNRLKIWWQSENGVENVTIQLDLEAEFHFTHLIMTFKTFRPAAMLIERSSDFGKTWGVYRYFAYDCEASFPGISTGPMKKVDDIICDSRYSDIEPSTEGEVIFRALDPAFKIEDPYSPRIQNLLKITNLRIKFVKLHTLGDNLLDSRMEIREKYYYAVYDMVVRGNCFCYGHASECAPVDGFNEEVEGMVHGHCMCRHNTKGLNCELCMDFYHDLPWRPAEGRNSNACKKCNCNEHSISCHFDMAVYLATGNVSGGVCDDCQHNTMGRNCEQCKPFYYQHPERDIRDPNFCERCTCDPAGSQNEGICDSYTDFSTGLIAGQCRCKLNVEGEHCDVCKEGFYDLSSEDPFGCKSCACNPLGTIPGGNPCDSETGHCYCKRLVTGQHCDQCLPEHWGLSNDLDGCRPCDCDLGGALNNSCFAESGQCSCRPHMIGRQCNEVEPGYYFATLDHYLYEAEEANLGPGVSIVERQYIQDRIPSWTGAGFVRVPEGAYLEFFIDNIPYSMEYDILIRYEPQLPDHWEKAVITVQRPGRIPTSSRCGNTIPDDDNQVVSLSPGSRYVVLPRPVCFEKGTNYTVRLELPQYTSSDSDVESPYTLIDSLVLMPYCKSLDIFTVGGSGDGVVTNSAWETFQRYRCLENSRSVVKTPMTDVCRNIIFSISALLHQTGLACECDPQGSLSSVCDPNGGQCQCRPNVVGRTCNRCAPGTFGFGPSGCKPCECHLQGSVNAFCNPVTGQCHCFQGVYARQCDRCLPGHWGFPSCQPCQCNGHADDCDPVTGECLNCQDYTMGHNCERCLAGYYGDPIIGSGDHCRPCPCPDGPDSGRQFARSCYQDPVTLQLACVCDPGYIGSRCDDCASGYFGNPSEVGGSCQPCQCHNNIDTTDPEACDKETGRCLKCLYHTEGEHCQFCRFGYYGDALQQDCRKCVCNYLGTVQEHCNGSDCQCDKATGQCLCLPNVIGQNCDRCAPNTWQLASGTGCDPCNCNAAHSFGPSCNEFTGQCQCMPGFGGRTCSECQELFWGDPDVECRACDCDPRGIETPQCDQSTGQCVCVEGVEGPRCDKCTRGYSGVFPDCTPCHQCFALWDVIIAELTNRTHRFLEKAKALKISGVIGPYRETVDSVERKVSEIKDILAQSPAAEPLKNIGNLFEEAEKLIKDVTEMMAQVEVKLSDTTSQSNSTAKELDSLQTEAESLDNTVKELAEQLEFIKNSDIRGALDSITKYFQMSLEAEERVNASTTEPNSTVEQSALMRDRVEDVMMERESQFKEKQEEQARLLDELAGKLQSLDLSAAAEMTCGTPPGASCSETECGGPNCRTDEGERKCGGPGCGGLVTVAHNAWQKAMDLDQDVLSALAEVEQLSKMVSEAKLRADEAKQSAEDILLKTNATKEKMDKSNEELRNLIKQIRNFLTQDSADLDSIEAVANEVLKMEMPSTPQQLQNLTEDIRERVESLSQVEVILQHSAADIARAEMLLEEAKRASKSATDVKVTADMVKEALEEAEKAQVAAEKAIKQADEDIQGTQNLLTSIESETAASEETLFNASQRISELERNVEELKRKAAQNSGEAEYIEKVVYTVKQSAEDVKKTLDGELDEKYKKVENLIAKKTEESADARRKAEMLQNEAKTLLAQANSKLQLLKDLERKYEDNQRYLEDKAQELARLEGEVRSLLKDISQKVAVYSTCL

Compound: Nc1ncnc2c1ncn2[C@@H]1O[C@H](COP(=O)(O)OP(=O)(O)NP(=O)(O)O)[C@@H](O)[C@H]1O [adenylyl imidodiphosphate]
Test: NP40-soluble protein abundance relative to vehicle (solubility fold change) (ratio); higher = more soluble protein in presence of AMP-PNP
How it was run: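 Data come from three independent experiments in which Dounce-homogenised Jurkat crude lysate was treated at eight concentrations from 0.1 to 10 mM. Treatment ran 10 min at room temperature and then 3 min at 37 °C, after which 0.8% NP40 and benzonase were added for 60 min at 4 °C before ultracentrifugation. The supernatant underwent TMT labelling and LC-MS/MS, and vsn-normalised intensities were expressed as fold change against the detergent-processed vehicle in each replicate.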

Row | Target | NP40-soluble protein abundance (concentration: 1mM) | NP40-soluble protein abundance (concentration: 2mM) | NP40-soluble protein abundance (concentration: 4mM) | NP40-soluble protein abundance (concentration: 6mM) | NP40-soluble protein abundance (concentration: 8mM) | NP40-soluble protein abundance (concentration: 10mM)
1 | H3BLZ8 (UniProt Q92841) | 1.03 ± 0.061 | 1.02 ± 0.06 | 0.983 ± 0.17 | 1 ± 0.13 | 1.04 ± 0.097 | 1.04 ± 0.08
2 | H0YEF3 and related entries (UniProt Q8TDP1) | 0.989 ± 0.021 | 0.962 ± 0.051 | 0.983 ± 0.015 | 1.01 ± 0.044 | 1.02 ± 0.04 | 0.971 ± 0.045
3 | H0Y8P4 and related entries (UniProt Q8TED0) | 1.01 ± 0.024 | 1.04 ± 0.025 | 1.043 ± 0.0024 | 1.04 ± 0.012 | 1.09 ± 0.021 | 1.13 ± 0.021
4 | H7BZJ3 and related entries (UniProt P30101) | 1.03 ± 0.02 | 1.04 ± 0.05 | 1.02 ± 0.025 | 0.981 ± 0.042 | 0.961 ± 0.044 | 0.965 ± 0.1
5 | H3BLS7 and related entries (UniProt Q5THJ4) | 0.949 ± 0.069 | 0.947 ± 0.083 | 0.946 ± 0.1 | 0.987 ± 0.075 | 0.963 ± 0.11 | 0.942 ± 0.061
6 | H7C0G7 and related entries (UniProt Q9H9Q4) | 1.05 ± 0.041 | 1.09 ± 0.05 | 1.05 ± 0.042 | 1.04 ± 0.053 | 1.08 ± 0.057 | 1.05 ± 0.045
7 | I3L072 and related entries (UniProt Q9BSJ5) | 1.01 ± 0.034 | 1.02 ± 0.024 | 1.01 ± 0.011 | 1.03 ± 0.044 | 1.01 ± 0.012 | 0.998 ± 0.019
8 | H0Y473 and related entries (UniProt O75354) | 1.01 ± 0.022 | 1.01 ± 0.023 | 1.004 ± 0.0036 | 0.993 ± 0.023 | 0.984 ± 0.033 | 1.02 ± 0.038
9 | I3L4X7 and related entries (UniProt Q13227) | 0.982 ± 0.029 | 1.03 ± 0.059 | 1.02 ± 0.064 | 1.08 ± 0.067 | 1.05 ± 0.019 | 1.1 ± 0.019
10 | H0YC40 and related entries (UniProt Q08722) | 0.99 ± 0.022 | 1.07 ± 0.087 | 0.982 ± 0.051 | 1.02 ± 0.04 | 0.991 ± 0.05 | 1.02 ± 0.069
11 | J3KNN3 and related entries (UniProt P15735) | 1.02 ± 0.033 | 0.969 ± 0.092 | 1.01 ± 0.066 | 0.954 ± 0.064 | 0.974 ± 0.046 | 0.956 ± 0.072
12 | J3QTA2 and related entries (UniProt Q99933) | 1.01 ± 0.028 | 1.029 ± 0.0083 | 0.992 ± 0.012 | 0.99 ± 0.03 | 0.965 ± 0.038 | 0.993 ± 0.021
13 | H0YBR0 and related entries (UniProt Q96Q05) | 1.09 ± 0.24 | 0.939 ± 0.053 | 0.968 ± 0.027 | 0.909 ± 0.011 | 0.952 ± 0.024 | 0.944 ± 0.031
14 | G3XAI2 and related entries (UniProt P07942) | 1.01 ± 0.029 | 1.02 ± 0.068 | 1.02 ± 0.029 | 1.008 ± 0.0061 | 0.988 ± 0.033 | 1.028 ± 0.0095
15 | J3KNF5 and related entries (UniProt O15078) | 0.962 ± 0.016 | 0.913 ± 0.052 | 0.92 ± 0.022 | 0.972 ± 0.02 | 0.941 ± 0.032 | 0.964 ± 0.04

Retrieved one by one from above (2):
Row | Target | NP40-soluble protein abundance (concentration: 1mM) | NP40-soluble protein abundance (concentration: 2mM) | NP40-soluble protein abundance (concentration: 4mM) | NP40-soluble protein abundance (concentration: 6mM) | NP40-soluble protein abundance (concentration: 8mM) | NP40-soluble protein abundance (concentration: 10mM)
8 | H0Y473 and related entries (UniProt O75354) | 1.01 ± 0.022 | 1.01 ± 0.023 | 1.004 ± 0.0036 | 0.993 ± 0.023 | 0.984 ± 0.033 | 1.02 ± 0.038
2 | H0YEF3 and related entries (UniProt Q8TDP1) | 0.989 ± 0.021 | 0.962 ± 0.051 | 0.983 ± 0.015 | 1.01 ± 0.044 | 1.02 ± 0.04 | 0.971 ± 0.045
